Measurements reported in PubChem BioAssay AID1053208 (Peter MacCallum Cancer Centre, 2014)
The deposit covers about 17,000 reagents; this is a random part of them. Over the whole deposit, 788 (4.7%) are marked active. 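Calls rest on z-score classes alone; an extra cut-off of viability at most 70% of control was not applied to them.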 Unmarked entries are inactive. Further read-outs or replicates are left out here.

Aim: 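Find knock-downs that sensitise mouse osteosarcoma cells to doxorubicin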 (primary screen)
System: mouse osteosarcoma cells, early-passage culture from an engineered mouse model of fibroblastic bone tumour
Reagent: siRNA pool against mouse genes, 40 nM
Duration: about 120 h (48 h before drug, then 72 h with drug)
Conditions: doxorubicin 100 nM for 72 h, roughly 30-40% inhibitory dose
Measured: 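Viability read as ATP luminescence after 72 h of 100 nM doxorubicin or none, duplicate wells averaged, scaled to non-targeting siRNA, then expressed as robust z-scores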
Scale: viability z-score with doxorubicin: higher = more viable cells under doxorubicin; viability z-score without drug: higher = more viable cells with knock-down alone
Hit rule: 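Called active if knock-down leaves viability unchanged without drug (z within -2 to 2) but lowers it with doxorubicin (z at or under -2)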

After knock-down of Ldb3, the record shows combined z-score class no change with or without drug; viability z-score with doxorubicin 1.12; viability z-score without drug 0.51. After knock-down of Nin, the record shows combined z-score class no change with or without drug; viability z-score with doxorubicin 0.79; viability z-score without drug -0.17. Rbp4 gave combined z-score class no change with or without drug; viability z-score with doxorubicin -0.67; viability z-score without drug -1.52. Silencing of Lce1b came out at: combined z-score class high cell count with doxorubicin only; viability z-score with doxorubicin 2.47; viability z-score without drug 1.85. 4833432B22RIK gave combined z-score class no change with or without drug; viability z-score with doxorubicin 0.45; viability z-score without drug -1.18. With knock-down of Il2 the results were combined z-score class no change with or without drug; viability z-score with doxorubicin 0.79; viability z-score without drug 0.34.

For Cyp3a44 the deposit lists combined z-score class no change with or without drug; viability z-score with doxorubicin 1.01; viability z-score without drug 1.69. After knock-down of Trf, the screen gave combined z-score class no change with or without drug; viability z-score with doxorubicin -0.56; viability z-score without drug -0.17. With knock-down of Ss18l1, the screen gave combined z-score class no change with or without drug; viability z-score with doxorubicin -0.9; viability z-score without drug -0.17. Knock-down of Saxo2 gave: combined z-score class no change with or without drug; viability z-score with doxorubicin 0.34; viability z-score without drug -0.51. For Asb14, the values are combined z-score class low cell count with doxorubicin only (active); viability z-score with doxorubicin -4.38; viability z-score without drug -0.51. Against Slc26a6, the values are combined z-score class high cell count with doxorubicin only; viability z-score with doxorubicin 2.02; viability z-score without drug 1.52.

For Pdlim4, the entry reads combined z-score class no change with or without drug; viability z-score with doxorubicin -1.8; viability z-score without drug -1.52. For Uxt, the entry reads combined z-score class no change with or without drug; viability z-score with doxorubicin -0.67; viability z-score without drug -0.84. Silencing of Paqr8 gave: combined z-score class no change with or without drug; viability z-score with doxorubicin 0; viability z-score without drug -0.17. After knock-down of Prl3d3 the results were combined z-score class no change with or without drug; viability z-score with doxorubicin -0.9; viability z-score without drug -0.67. Depletion of Dnah5 came out at: combined z-score class no change with or without drug; viability z-score with doxorubicin 0.22; viability z-score without drug -0.51.

Reprinted from the entries so far (3 entries):
Slc26a6: combined z-score class = high cell count with doxorubicin only; viability z-score with doxorubicin = 2.02; viability z-score without drug = 1.52
Pdlim4: combined z-score class = no change with or without drug; viability z-score with doxorubicin = -1.8; viability z-score without drug = -1.52
Uxt: combined z-score class = no change with or without drug; viability z-score with doxorubicin = -0.67; viability z-score without drug = -0.84

More entries:
Alg2 scored combined z-score class no change with or without drug; viability z-score with doxorubicin 0.22; viability z-score without drug 0.51. Commd7 scored combined z-score class no change with or without drug; viability z-score with doxorubicin 0.67; viability z-score without drug 1.18. Lcn9 scored combined z-score class no change with or without drug; viability z-score with doxorubicin 0; viability z-score without drug 0.84. After knock-down of Rev3l, the screen gave combined z-score class no change with or without drug; viability z-score with doxorubicin -0.45; viability z-score without drug -0.51. Against Snrnp200, the entry reads combined z-score class low cell count with and without drug; viability z-score with doxorubicin -4.61; viability z-score without drug -8.43. Fabp9 showed combined z-score class no change with or without drug; viability z-score with doxorubicin 0.34; viability z-score without drug 0.51.

After knock-down of Gstp3, the screen gave combined z-score class no change with or without drug; viability z-score with doxorubicin -0.9; viability z-score without drug -1.85. For Wdr5, the values are combined z-score class no change with or without drug; viability z-score with doxorubicin 0.34; viability z-score without drug -0.84. Knock-down of Cdca4 came out at: combined z-score class no change with or without drug; viability z-score with doxorubicin 0.67; viability z-score without drug 1.52. After knock-down of Pcbp2 the results were combined z-score class no change with or without drug; viability z-score with doxorubicin 1.35; viability z-score without drug 1.18. Mme gave combined z-score class no change with or without drug; viability z-score with doxorubicin 0.22; viability z-score without drug 0.17.
